Literature values as cited in patent publication US20210267977A1, “C[…] AFTER 5HT2A AGONISTS ADMINISTRATION” (Universitätsspital Basel, priority 2020, published 2021).
For at least one compound, name, drawing or mass did not settle the structure.

System: humans
Conditions: Griffiths et al., 2016, Passie et al., 2008; cited from earlier work

## CN(C)CCc1c[nH]c2cccc(OP(=O)(O)O)c12 [psilocybin]
  duration of action: 4 to 6 h
